One assay deals with A549. The assay can be described thus: Cytotoxicity against human A549 cells assessed as cell growth inhibition measured after 48 hrs by MTT assay. In kind it is functional, cell-based. Particulars: A549, 48 h.
The test system of a further assay is HeLa. The assay can be described thus: Cytotoxicity against human HeLa cells assessed as cell growth inhibition measured after 48 hrs by MTT assay. In kind it is functional, cell-based. In general terms: Tetrazolium dyes change colour on reduction, which living cells bring about.

Where a name gives a salt, the structure may show the parent alone.

Among the data in ChEMBL document CHEMBL4825705, “Iridoid Constituents of Viburnum brachybotryum” (J Nat Prod, 2021) are IC50 values, retold here.

What is called IC50 is the concentration at which inhibition is half-maximal. Turning to `COc1cccc2c1C(=O)c1c(O)c3c(c(O)c1C2=O)C[C@@](O)(C(=O)CO)C[C@@H]3O[C@H]1C[C@H](N)[C@H](O)[C@H](C)O1` [DOXORUBICIN HYDROCHLORIDE], the 50% inhibitory concentration (IC50) in the assay on A549 stood at 290 nM; in the assay with HeLa, 180 nM.
